Experiment [1] has as its target MBP-His-tagged mouse CBY1 4E (L77E, L84E, L91E, L98E) (mouse) (UniProt Q9D1C2). In words: SEC-MALS; typically 200 μl at 70 μM injected; Superose 12 10/300 GL; 50 mM Tris pH 7.5, 1 mM DTT, 1 mM EDTA, 100 mM NaCl; both purified. (SEC sorts molecules by how far they enter the pores of the column.)
In experiment [2] the target is Trx-His-tagged mouse CBY1 N-terminal region (amino acids 1-70) (mouse) (UniProt Q9D1C2). Described as above.

These are yes or no findings as the source states them, for the method shown.

Take “MBP-His-tagged mouse CBY1 4E (L77E, L84E, L91E, L98E) (from UniProt Q9D1C2 1-127)”: the binding entry in experiment [1] is “no binding (tested: typically 70 μM injected)”.

B1: Trx-His-tagged mouse CBY1 N-terminal region (amino acids 1-70) (domain or fragment)
chain: MPLFGSIFSPKKTPPRKSASLSNLHSLDRSTRELELGLDYGTPTMNLAGQSLKFENGQWVADSVISGGVD
For the molecule B1, in experiment [2], the binding result is “no binding (tested: typically 70 μM injected)”.
